Assay results as given in article PMC4471195.
No constants are given. Whether binding was seen depends on the method and setting. In cells and extracts the contact can be indirect. Some binding calls cover weakened binding; strength is not graded here. Sequences can lack the tags named with a protein.

The chains behind the UniProt entries cited, without tags or fusion partners. Residues count along the entry.
UniProt Q9Y5K6: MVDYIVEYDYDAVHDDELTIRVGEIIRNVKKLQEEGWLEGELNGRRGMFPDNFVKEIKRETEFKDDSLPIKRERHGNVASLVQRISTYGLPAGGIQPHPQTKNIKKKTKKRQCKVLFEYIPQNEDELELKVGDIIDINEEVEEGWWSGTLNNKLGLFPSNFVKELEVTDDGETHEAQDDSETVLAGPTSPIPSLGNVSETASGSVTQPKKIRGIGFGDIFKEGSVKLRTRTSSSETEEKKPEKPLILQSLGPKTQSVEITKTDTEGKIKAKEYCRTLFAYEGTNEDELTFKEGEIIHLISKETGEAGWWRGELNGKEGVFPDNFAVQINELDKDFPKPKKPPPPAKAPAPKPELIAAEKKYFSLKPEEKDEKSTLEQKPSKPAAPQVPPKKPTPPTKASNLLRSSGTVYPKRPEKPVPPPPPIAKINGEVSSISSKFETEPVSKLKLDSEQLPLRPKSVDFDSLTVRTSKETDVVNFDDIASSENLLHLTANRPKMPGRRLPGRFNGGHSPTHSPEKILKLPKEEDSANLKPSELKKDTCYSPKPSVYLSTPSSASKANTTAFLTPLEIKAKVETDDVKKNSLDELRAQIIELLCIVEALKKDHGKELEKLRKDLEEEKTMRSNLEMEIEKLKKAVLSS
UniProt P55854, residues 1-92: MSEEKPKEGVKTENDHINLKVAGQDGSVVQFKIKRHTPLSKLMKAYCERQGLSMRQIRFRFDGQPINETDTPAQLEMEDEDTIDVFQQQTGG

T1: FLAG-tagged PIAS4 (UniProt Q8N2W9)
T1 sequence: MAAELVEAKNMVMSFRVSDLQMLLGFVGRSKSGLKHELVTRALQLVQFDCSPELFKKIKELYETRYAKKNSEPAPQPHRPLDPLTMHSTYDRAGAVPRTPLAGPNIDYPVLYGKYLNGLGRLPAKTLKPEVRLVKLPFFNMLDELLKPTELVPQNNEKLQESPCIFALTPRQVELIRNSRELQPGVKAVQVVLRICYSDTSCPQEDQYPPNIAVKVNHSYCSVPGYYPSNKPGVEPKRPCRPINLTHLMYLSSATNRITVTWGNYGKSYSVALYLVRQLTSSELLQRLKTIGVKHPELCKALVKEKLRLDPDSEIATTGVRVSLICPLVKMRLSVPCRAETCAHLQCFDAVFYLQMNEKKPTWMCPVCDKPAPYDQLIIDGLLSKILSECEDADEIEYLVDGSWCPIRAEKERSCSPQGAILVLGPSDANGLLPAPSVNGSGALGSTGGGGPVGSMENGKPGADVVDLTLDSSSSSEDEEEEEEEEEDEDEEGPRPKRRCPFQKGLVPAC

T2: V5-tagged PIAS4 (wheat germ cell-free system) (UniProt Q8N2W9)
T2 sequence: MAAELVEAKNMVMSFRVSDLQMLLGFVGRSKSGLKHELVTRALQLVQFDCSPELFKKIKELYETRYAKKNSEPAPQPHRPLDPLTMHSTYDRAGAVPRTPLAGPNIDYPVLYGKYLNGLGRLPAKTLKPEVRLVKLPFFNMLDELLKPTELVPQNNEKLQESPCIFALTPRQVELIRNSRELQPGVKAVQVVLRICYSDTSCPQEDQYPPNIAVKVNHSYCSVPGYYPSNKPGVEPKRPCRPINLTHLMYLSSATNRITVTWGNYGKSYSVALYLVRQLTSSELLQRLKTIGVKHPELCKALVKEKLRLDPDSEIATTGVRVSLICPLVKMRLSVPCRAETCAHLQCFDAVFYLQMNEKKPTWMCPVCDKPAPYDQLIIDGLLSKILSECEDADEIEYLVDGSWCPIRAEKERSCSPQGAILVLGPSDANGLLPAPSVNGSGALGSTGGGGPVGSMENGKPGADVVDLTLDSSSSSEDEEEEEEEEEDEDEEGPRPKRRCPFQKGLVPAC


Experiments:
FLAG-tagged PIAS4 = target: T1, FLAG-tagged PIAS4; experiment: co-IP; transient co-expression in HEK 293T; lysis in 20 mM Tris pH 7.5, 1% Triton X-100, 50 mM NaCl, 50 mM NaF, 15 mM Na4P2O7, 0.1 mM EDTA; FLAG M2 sepharose beads, 2 h, 4°C; Western blot
Flag-tagged CD2AP = Flag-tagged CD2AP (UniProt Q9Y5K6); experiment: as above
His-tagged SUMO-3 = His-tagged SUMO-3 (UniProt P55854); experiment: pull-down; His-tagged SUMO proteins co-transfected with V5-tagged proteins in HEK 293T, 36 h; Ni-NTA beads, non-denaturing conditions; anti-V5 blot
[1] = target: T2, V5-tagged PIAS4 (wheat germ cell-free system); experiment: co-IP; proteins produced in the wheat germ cell-free system; V5-tagged proteins precipitated with V5 agarose beads; Western blot

Binder	binding (FLAG-tagged PIAS4)	binding (Flag-tagged CD2AP)	binding (His-tagged SUMO-3)	binding [1]
V5-tagged Glis2 (protein, UniProt Q9BZE0 1-524) MHSLDEPLDLKLSITKLRAAREKRERTLGVVRPRALHRELGLVDDSPTPGSPGSPPSGFLLNSKFPEKVEGRFSAAPLVDLSLSPPSGLDSPNGSSSLSPERQGNGDLPPVPSASDFQPLRYLDGVPSSFQFFLPLGSGGALHLPASSFLTPPKDKCLSPDLPLPKQLVCRWAKCNQLFELLQDLVDHVNDYHVKPEKDAGYCCHWEGCARHGRGFNARYKMLIHIRTHTNEKPHRCPTCSKSFSRLENLKIHNRSHTGEKPYVCPYEGCNKRYSNSSDRFKHTRTHYVDKPYYCKMPGCHKRYTDPSSLRKHIKAHGHFVSHEQQELLQLRPPPKPPLPAPDGGPYVSGAQIIIPNPAALFGGPGLPGLPLPLAPGPLDLSALACGNGGGSGGGGGMGPGLPGPVLPLNLAKNPLLPSPFGAGGLGLPVVSLLAGAAGGKAEGEKGRGSVPTRALGMEGHKTPLERTESSCSRPSPDGLPLLPGTVLDLSTGVNSAASSPEALAPGWVVIPPGSVLLKPAVVN	binds	no binding	binds	
FLAG-tagged Glis2 (wheat germ cell-free system) (protein, UniProt Q9BZE0 1-524) MHSLDEPLDLKLSITKLRAAREKRERTLGVVRPRALHRELGLVDDSPTPGSPGSPPSGFLLNSKFPEKVEGRFSAAPLVDLSLSPPSGLDSPNGSSSLSPERQGNGDLPPVPSASDFQPLRYLDGVPSSFQFFLPLGSGGALHLPASSFLTPPKDKCLSPDLPLPKQLVCRWAKCNQLFELLQDLVDHVNDYHVKPEKDAGYCCHWEGCARHGRGFNARYKMLIHIRTHTNEKPHRCPTCSKSFSRLENLKIHNRSHTGEKPYVCPYEGCNKRYSNSSDRFKHTRTHYVDKPYYCKMPGCHKRYTDPSSLRKHIKAHGHFVSHEQQELLQLRPPPKPPLPAPDGGPYVSGAQIIIPNPAALFGGPGLPGLPLPLAPGPLDLSALACGNGGGSGGGGGMGPGLPGPVLPLNLAKNPLLPSPFGAGGLGLPVVSLLAGAAGGKAEGEKGRGSVPTRALGMEGHKTPLERTESSCSRPSPDGLPLLPGTVLDLSTGVNSAASSPEALAPGWVVIPPGSVLLKPAVVN				binds
V5-tagged Diversin (protein, UniProt Q9Y2G4 1-727) MSQQDAVAALSERLLVAAYKGQTENVVQLINKGARVAVTKHGRTPLHLAANKGHLPVVQILLKAGCDLDVQDDGDQTALHRATVVGNTEIIAALIHEGCALDRQDKDGNTALHEASWHGFSQSAKLLIKAGANVLAKNKAGNTALHLACQNSHSQSTRVLLLAGSRADLKNNAGDTCLHVAARYNHLSIIRLLLTAFCSVHEKNQAGDTALHVAAALNHKKVAKILLEAGADTTIVNNAGQTPLETARYHNNPEVALLLTKAPQVLRFSRGRSLRKKRERLKEERRAQSVPRDEVAQSKGSVSAGDTPSSEQAVARKEEAREEFLSASPEPRAKDDRRRKSRPKVSAFSDPTPPADQQPGHQKNLHAHNHPKKRNRHRCSSPPPPHEFRAYQLYTLYRGKDGKVMQAPINGCRCEPLINKLENQLEATVEEIKAELGSVQDKMNTKLGQMENKTQHQMRVLDKLMVERLSAERTECLNRLQQHSDTEKHEGEKRQISLVDELKTWCMLKIQNLEQKLSGDSRACRAKSTPSTCESSTGVDQLVVTAGPAAASDSSPPVVRPKEKALNSTATQRLQQELSSSDCTGSRLRNVKVQTALLPMNEAARSDQQAGPCVNRGTQTKKSGKSGPTRHRAQQPAASSTCGQPPPATGSEQTGPHIRDTSQALELTQYFFEAVSTQMEKWYERKIEEARSQANQKAQQDKATLKEHIKSLEEELAKLRTRVQKEN	no binding			
V5-tagged NPHP2 (protein, UniProt Q9Y283 1-1065) MNKSENLLFAGSSLASQVHAAAVNGDKGALQRLIVGNSALKDKEDQFGRTPLMYCVLADRLDCADALLKAGADVNKTDHSQRTALHLAAQKGNYRFMKLLLTRRANWMQKDLEEMTPLHLTTRHRSPKCLALLLKFMAPGEVDTQDKNKQTALHWSAYYNNPEHVKLLIKHDSNIGIPDVEGKIPLHWAANHKDPSAVHTVRCILDAAPTESLLNWQDYEGRTPLHFAVADGNVTVVDVLTSYESCNITSYDNLFRTPLHWAALLGHAQIVHLLLERNKSGTIPSDSQGATPLHYAAQSNFAETVKVFLKHPSVKDDSDLEGRTSFMWAAGKGSDDVLRTMLSLKSDIDINMADKYGGTALHAAALSGHVSTVKLLLENNAQVDATDVMKHTPLFRACEMGHKDVIQTLIKGGARVDLVDQDGHSLLHWAALGGNADVCQILIENKINPNVQDYAGRTPLQCAAYGGYINCMAVLMENNADPNIQDKEGRTALHWSCNNGYLDAIKLLLDFAAFPNQMENNEERYTPLDYALLGERHEVIQFMLEHGALSIAAIQDIAAFKIQAVYKGYKVRKAFRDRKNLLMKHEQLRKDAAAKKREEENKRKEAEQQKGRRSPDSCRPQALPCLPSTQDVPSRQSRAPSKQPPAGNVAQGPEPRDSRGSPGGSLGGALQKEQHVSSDLQGTNSRRPNETAREHSKGQSACVHFRPNEGSDGSRHPGVPSVEKSRGETAGDERCAKGKGFVKQPSCIRVAGPDEKGEDSRRAAASLPPHDSHWKPSRRHDTEPKAKCAPQKRRTQELRGGRCSPAGSSRPGSARGEAVHAGQNPPHHRTPRNKVTQAKLTGGLYSHLPQSTEELRSGARRLETSTLSEDFQVSKETDPAPGPLSGQSVNIDLLPVELRLQIIQRERRRKELFRKKNKAAAVIQRAWRSYQLRKHLSHLRHMKQLGAGDVDRWRQESTALLLQVWRKELELKFPQTTAVSKAPKSPSKGTSGTKSTKHSVLKQIYGCSHEGKIHHPTRSVKASSVLRLNSVSNLQCIHLLENSGRSKNFSYNLQSATQPKNKTKP			no binding	
